# The list shows a part of the results.
# The chains behind the UniProt entries cited, without tags or fusion partners.
# UniProt Q0JBA9, entry or part of it: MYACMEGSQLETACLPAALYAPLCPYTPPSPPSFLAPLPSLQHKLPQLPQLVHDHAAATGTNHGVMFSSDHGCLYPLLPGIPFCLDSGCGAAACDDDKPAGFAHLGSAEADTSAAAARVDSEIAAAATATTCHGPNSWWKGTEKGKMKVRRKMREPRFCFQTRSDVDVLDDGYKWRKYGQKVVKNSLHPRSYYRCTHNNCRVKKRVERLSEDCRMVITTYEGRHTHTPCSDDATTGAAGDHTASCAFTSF
# Target: OsWRKY34 (Oryza sativa, UniProt Q0JBA9 1-250)
# Assay: protein-binding microarray (RPBM); PBS, 2% BSA, 51.3 ng/ul salmon testes DNA, 50 uM zinc acetate, 200 nM TF, 25 C, 1 h; high values mean tight binding
# Details: protein: recombinant; tags: N-terminal polyhistidine and DsRed monomer fusion (pET32a); label: CyDye5-dUTP incorporated in the synthesized complementary strand; 3' TTTTT single-stranded linker to array surface; dsDNA, one strand shown
# How it was run: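 The binding signal is fluorescence intensity per array feature (arbitrary units). Readings came from an Axon 4000B scanner after a washed, 2% BSA-blocked, double-stranded custom Agilent array had been incubated for 1 h at 25 °C with 200 nM protein and 50 µM zinc acetate. The protein was a Ni–NTA-purified transcription factor fused N-terminally to polyhistidine and DsRed, expressed in E. coli BL21-CodonPlus.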
row,Sequence,binding signal
1,GCGTTTTACAGGGTTGCTTAGTGGGTGGGATGTTAACGATCGGAGTCACCTAGTGCAG,14700 fluorescence intensity (a.u.)
2,TCCACATATGCTAGCTTATAGGCTGCTATTATATACTCTCCGGAGTCACCTAGTGCAG,8500 fluorescence intensity (a.u.)
3,GCCACCTCTGTCTGCCGCCACCGCCGCCGCCGCCGCCATGCGGAGTCACCTAGTGCAG,10200 fluorescence intensity (a.u.)
4,CAATATTCTTTGACAGCTTCGATTGACATCTCACCTTATGCGGAGTCACCTAGTGCAG,8510 fluorescence intensity (a.u.)
5,TTTTTTTCTGGTTTGACTCTTGAGGGCCTTTGCTGAAAGCCGGAGTCACCTAGTGCAG,10400 fluorescence intensity (a.u.)
6,TTCGGCGGTGTGGTGTTAGCTAGTTCATGTCATGGCAACCCGGAGTCACCTAGTGCAG,8330 fluorescence intensity (a.u.)
7,TTTTTGGTGGGGTAGAGTTGTATTTGGTTTGAGGCCAATTCGGAGTCACCTAGTGCAG,9480 fluorescence intensity (a.u.)
8,TCAACCGCTATCACACTACTTGCTAGCTCGTTACCCTATCCGGAGTCACCTAGTGCAG,9030 fluorescence intensity (a.u.)
9,CACCGTGCGCGGTCTCTTGATCTCTCTTTTTCATGTCGTTCGGAGTCACCTAGTGCAG,8580 fluorescence intensity (a.u.)
10,ATACACTGTTCTGTTCCTGTTTCCAACTCAAGAAAACTTCCGGAGTCACCTAGTGCAG,9210 fluorescence intensity (a.u.)
11,GTGGCGTTGACCACCGACGTTGAAAATGGAAGCGCACATGCGGAGTCACCTAGTGCAG,8640 fluorescence intensity (a.u.)
12,GAGCGCTCGTGTCTCCGCGTCGTCACTTGTAGTTTTGCAACGGAGTCACCTAGTGCAG,11200 fluorescence intensity (a.u.)
13,TTCTTTGTCTCTCTCTCTCGGGCGGATTTCGGTTTCTTCGCGGAGTCACCTAGTGCAG,9130 fluorescence intensity (a.u.)
14,AGCTCAGAATCCTACCTGACTAGTACTACCACTACTAGCTCGGAGTCACCTAGTGCAG,8500 fluorescence intensity (a.u.)
15,CTCGCGCCCGCTCGCCGCCTCGTCCTCGCCGTCCTCGGTCCGGAGTCACCTAGTGCAG,8520 fluorescence intensity (a.u.)
16,CCACTTTTGGAGTCAAACTGTGGCCTATCTCTTCACACGTCGGAGTCACCTAGTGCAG,9760 fluorescence intensity (a.u.)
17,CGTAATTTACACGCAATATGTGTAATTAGTTATTTTTTTCCGGAGTCACCTAGTGCAG,9270 fluorescence intensity (a.u.)
18,CATTGACGGCACCTGCCATCTCGGTTCTTCAGTTACTATTCGGAGTCACCTAGTGCAG,10300 fluorescence intensity (a.u.)
19,TTAATCCATGTCATGTCCCTTTGCTTGCTTCCTTTGCTTTCGGAGTCACCTAGTGCAG,8450 fluorescence intensity (a.u.)
20,GGGTTTTGTGGCTGCATACCCACTATGGGTTGGAGTGTCTCGGAGTCACCTAGTGCAG,8090 fluorescence intensity (a.u.)
21,CCACTGTCCACATGCCCACATCATCTTCAACTGGGCCTACCGGAGTCACCTAGTGCAG,8480 fluorescence intensity (a.u.)

# Random excerpt: four entries already listed.
row,Sequence,binding signal
11,GTGGCGTTGACCACCGACGTTGAAAATGGAAGCGCACATGCGGAGTCACCTAGTGCAG,8640 fluorescence intensity (a.u.)
9,CACCGTGCGCGGTCTCTTGATCTCTCTTTTTCATGTCGTTCGGAGTCACCTAGTGCAG,8580 fluorescence intensity (a.u.)
16,CCACTTTTGGAGTCAAACTGTGGCCTATCTCTTCACACGTCGGAGTCACCTAGTGCAG,9760 fluorescence intensity (a.u.)
15,CTCGCGCCCGCTCGCCGCCTCGTCCTCGCCGTCCTCGGTCCGGAGTCACCTAGTGCAG,8520 fluorescence intensity (a.u.)

# (listing goes on)

row,Sequence,binding signal
1,GTCTTCTTCTTGCTCCTCTGGTAAGGTGTACTACCTCACACGGAGTCACCTAGTGCAG,8080 fluorescence intensity (a.u.)
2,GGAAAGTTATACTCTGTTATGGTACCCTTGTATACGCTACCGGAGTCACCTAGTGCAG,8820 fluorescence intensity (a.u.)
3,GGGGAGAATGAATAGTTAGGATTTAATGATGTTTTTTGGTCGGAGTCACCTAGTGCAG,10500 fluorescence intensity (a.u.)
4,CGGCAAATTTCACATATTTTGCAGTGTCCTCGGGCAGTTTCGGAGTCACCTAGTGCAG,8230 fluorescence intensity (a.u.)
5,GAATTTCAGACATCCATTTTCTAATCCAACGGTAGTTTTTCGGAGTCACCTAGTGCAG,8760 fluorescence intensity (a.u.)
6,GCTTAGGTTTAAAGCCTCACTCATTCTAATTATTTGATATCGGAGTCACCTAGTGCAG,8070 fluorescence intensity (a.u.)
7,CTCATCGCCTCGTCTCACGTTTGATCCATCACACTCACACCGGAGTCACCTAGTGCAG,8560 fluorescence intensity (a.u.)
8,GCTATCTTCGATCTGCTGTTCAACAATTCCGCTTCCGCCTCGGAGTCACCTAGTGCAG,8830 fluorescence intensity (a.u.)
9,ACCGGTCAAGACTGCAGTTTGTAGTTGAAGAAGAATTCTACGGAGTCACCTAGTGCAG,12700 fluorescence intensity (a.u.)
10,ACACGGATGCAACCCAAACCCAACACGGCAAGTCGCGGCCCGGAGTCACCTAGTGCAG,8300 fluorescence intensity (a.u.)
11,CCGACCGACCGACCGACCGCCGCGCGCGTACTGGCTACACCGGAGTCACCTAGTGCAG,8500 fluorescence intensity (a.u.)
12,CATTACCACAATTTGCCTCGCATTGACACAACTCAAGTTACGGAGTCACCTAGTGCAG,8530 fluorescence intensity (a.u.)
13,GGCGCTGCTTCGTGATTGCTTGTCTCGTGTCTGAATCACTCGGAGTCACCTAGTGCAG,9720 fluorescence intensity (a.u.)
14,CTGTTATTGTACCTGCTTTTACTACGTTCCCAATCACGAGCGGAGTCACCTAGTGCAG,12300 fluorescence intensity (a.u.)
15,GAGCCTTGTACCTGGTGCCATGATCTTGAACGCTTAGATGCGGAGTCACCTAGTGCAG,8300 fluorescence intensity (a.u.)
16,CATATATTTTGCACAAATCCAGCCCAACTTCTACGGGCCGCGGAGTCACCTAGTGCAG,8750 fluorescence intensity (a.u.)
17,TATTATTATGATGGGTTTGTATATTAAAATTGTCAGTTTGCGGAGTCACCTAGTGCAG,8110 fluorescence intensity (a.u.)
18,GCCACCCCGGCCACCTCAGCGCCCCATCCACGTCTCCGACCGGAGTCACCTAGTGCAG,8650 fluorescence intensity (a.u.)
19,AATTGCTCACGATAACATGGATCTGTCCTCGTTTTTCTTTCGGAGTCACCTAGTGCAG,11200 fluorescence intensity (a.u.)
20,TTGGTTGGATGGATGACGTTGCTGTGGCCGGCTGTTTCCACGGAGTCACCTAGTGCAG,8280 fluorescence intensity (a.u.)
21,GAATTTTTTTTTCGTTTTTTTCAATTCGTTATTCTTTTCTCGGAGTCACCTAGTGCAG,12300 fluorescence intensity (a.u.)

row,Sequence,binding signal
1,TGACCCATCTCATATCTTCATCTTCCTTCTCCTTCTCTACCGGAGTCACCTAGTGCAG,10500 fluorescence intensity (a.u.)
2,GACACAACCACATAGGCTGACATCTTGTATATTGGGACCTCGGAGTCACCTAGTGCAG,9550 fluorescence intensity (a.u.)
3,TGGCTTCCTACATCTACTCTATATTTATGCTCCTACAGAACGGAGTCACCTAGTGCAG,9760 fluorescence intensity (a.u.)
4,TCCGATCCGTTTGTTGTTGTTGCCGTGGCGTGCCTTGTGACGGAGTCACCTAGTGCAG,9520 fluorescence intensity (a.u.)
5,GGCCTCACGATGACACCTCGCTGCACCGCGCACCACAAACCGGAGTCACCTAGTGCAG,9380 fluorescence intensity (a.u.)
6,AAATAGACTCACAGAACAGCAGCTTCCATCACACTAACACCGGAGTCACCTAGTGCAG,9340 fluorescence intensity (a.u.)
7,CGCCCTCGCCTGGATCTACCCGGCCCGCCGTCCCATTCACCGGAGTCACCTAGTGCAG,8460 fluorescence intensity (a.u.)
8,ACTAATTATAGTATAATTTTTTATTTCTGTTACAACTTATCGGAGTCACCTAGTGCAG,8860 fluorescence intensity (a.u.)
9,CGCGTTTCAGCTCCTTTTTCGGCTTCTTTTTTGGCGATTTCGGAGTCACCTAGTGCAG,11400 fluorescence intensity (a.u.)
10,GTTCTACCAGCAGGTAATTTCACACTTCTTAATTGCCCTCCGGAGTCACCTAGTGCAG,10400 fluorescence intensity (a.u.)
11,TCTATATAGTTTTTCTGTTTTCGCATTTTAGTAAAATATTCGGAGTCACCTAGTGCAG,8100 fluorescence intensity (a.u.)
12,AGGGCTATATATATATATATACGTACTAACTTTTTCTTACCGGAGTCACCTAGTGCAG,8450 fluorescence intensity (a.u.)
13,TGCGGTTTGTTTCGTGGTGTGAGATATCTGGGATTTGTTTCGGAGTCACCTAGTGCAG,9250 fluorescence intensity (a.u.)
14,TTGCGTCCCTGCTCGTACACGGCGTTGAGCGTCTCCTTCACGGAGTCACCTAGTGCAG,14600 fluorescence intensity (a.u.)
15,TCACCTGCCAGCTGTCGCCGTCGTCTCGCCTCACCTGGGTCGGAGTCACCTAGTGCAG,9100 fluorescence intensity (a.u.)
16,CCAATCGTTTGCTTCTTCTTCTTCCTCTTCTCGCTGTTCTCGGAGTCACCTAGTGCAG,8070 fluorescence intensity (a.u.)
17,AAACCCCATTTTCTTTATATACTCCGGATCTCTGCGCCACCGGAGTCACCTAGTGCAG,8440 fluorescence intensity (a.u.)
18,ATTTTTTGGTATACTAACTGTGGGTATAAATTTAGTTCGTCGGAGTCACCTAGTGCAG,8380 fluorescence intensity (a.u.)
19,TGCTAGGTCACATTTGTCCTTCCGTTGGTTCCATTCCTACCGGAGTCACCTAGTGCAG,8280 fluorescence intensity (a.u.)
20,TCCTGAAGCATATGTTGTATTCTCTTATGATGTTACCTTTCGGAGTCACCTAGTGCAG,8200 fluorescence intensity (a.u.)
21,TCTCATATCGTGTTCGGGCCCGTCTGCACTCTCCACTTCCCGGAGTCACCTAGTGCAG,8910 fluorescence intensity (a.u.)

row,Sequence,binding signal
1,ATAAGTTCACCTGACATTCCTCAATTTTACGTCTGATCCCCGGAGTCACCTAGTGCAG,9930 fluorescence intensity (a.u.)
2,CCCTGTACAATATACGTTGCTGAAATTTGCAAGCCATGCCCGGAGTCACCTAGTGCAG,8480 fluorescence intensity (a.u.)
3,CTTCTTTGTCTTTATCAACTCTTACTTCAAAAACCTTTTACGGAGTCACCTAGTGCAG,9000 fluorescence intensity (a.u.)
4,GCCGCCGCCGCCGCCGCCGCCATTTTCCTTTTAATTATTTCGGAGTCACCTAGTGCAG,8160 fluorescence intensity (a.u.)
5,GTATGACGCCGTTGACTTTTCGATCAACGTTTGACTATTTCGGAGTCACCTAGTGCAG,25300 fluorescence intensity (a.u.)
6,CGCCGCCGCCGCCGCCGCCGCCGCTGCCCGTCCCCGCAACCGGAGTCACCTAGTGCAG,8940 fluorescence intensity (a.u.)
7,GCAATAGTTGGATGGGGAAGTTCTTAGGCACTGTCACATACGGAGTCACCTAGTGCAG,8620 fluorescence intensity (a.u.)
8,ACACATCACCTTTTATCTCATCACATGTCTTTGTACTATTCGGAGTCACCTAGTGCAG,8300 fluorescence intensity (a.u.)
9,AGTACTATTTACTAATGCTGTCCCGTTTTACCCACCATCGCGGAGTCACCTAGTGCAG,12300 fluorescence intensity (a.u.)
10,CTCTTCCACACAACACGCCACGCCACGCCTCGCCGCGCCGCGGAGTCACCTAGTGCAG,8430 fluorescence intensity (a.u.)
11,GCTGTTGACTTTTTCTCACGTGATTGACCTTTCGTCTTATCGGAGTCACCTAGTGCAG,28400 fluorescence intensity (a.u.)
12,TAATATTCGTGCGTGGGGTTGATCGAAATAGACTGAACTCCGGAGTCACCTAGTGCAG,9390 fluorescence intensity (a.u.)
13,ATATACTTTCATGTACACATATAGTTTTACATATTTTACACGGAGTCACCTAGTGCAG,8310 fluorescence intensity (a.u.)
14,CACTAAACCAAACATGTTATAATCGTAAGCACATCTGACACGGAGTCACCTAGTGCAG,8530 fluorescence intensity (a.u.)
15,GATAAGCGTAAGTGGGCCAGGCTTTCCATTTGCCAGCCGGCGGAGTCACCTAGTGCAG,8350 fluorescence intensity (a.u.)
16,GCCGCGCGCTCCCGCTCCTGTTGCTGAGTCCAAGTCCACACGGAGTCACCTAGTGCAG,11800 fluorescence intensity (a.u.)
17,CTTCTTCTTCTTCTTCTTCTTCTTCTTCTTCTTCTTCTTCCGGAGTCACCTAGTGCAG,9450 fluorescence intensity (a.u.)
18,AGCTTCCACTGCTCGCATCGCTTGTCATCATCATCAGTTCCGGAGTCACCTAGTGCAG,8240 fluorescence intensity (a.u.)
19,AGGAGGGGAGGCGCGGCGGAGGAGAAGAGGTGGGGATGGACGGAGTCACCTAGTGCAG,10000 fluorescence intensity (a.u.)
20,CCATCATCATTCGTGTCCTTTCCATTCTCTCCTGAAATCCCGGAGTCACCTAGTGCAG,8430 fluorescence intensity (a.u.)
21,CCAATTACACCTTAGCATGCACACATTCTCCCATACTGCACGGAGTCACCTAGTGCAG,8720 fluorescence intensity (a.u.)
